Assay results: publication PMC9154761, “Development of Praziquantel sulphonamide derivatives as antischistosomal drugs” (Journal of Enzyme Inhibition and Medicinal Chemistry, 2022)

Sequences of proteins named here, by UniProt entry; tags and fusion partners are left off.
UniProt A0A3S5H5R2, entry or part of it: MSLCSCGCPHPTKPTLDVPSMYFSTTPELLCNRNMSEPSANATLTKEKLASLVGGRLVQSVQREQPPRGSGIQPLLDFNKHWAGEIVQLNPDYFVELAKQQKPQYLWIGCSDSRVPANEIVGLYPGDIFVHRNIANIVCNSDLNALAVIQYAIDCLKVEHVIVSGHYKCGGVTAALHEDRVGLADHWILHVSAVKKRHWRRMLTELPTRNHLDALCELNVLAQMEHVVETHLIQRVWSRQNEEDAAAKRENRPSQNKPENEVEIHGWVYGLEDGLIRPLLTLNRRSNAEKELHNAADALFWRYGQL

Target: LdCA (Leishmania donovani, UniProt A0A3S5H5R2)
Experiment: biochemical
Conditions: stopped flow CO2 hydrase assay; mean from three different assays
Description: An Applied Photophysics stopped-flow instrument was used to assay the CA catalysed CO2 hydration activity. […]. The uncatalyzed rates were determined in the same manner and subtracted from the total observed rates. Stock solutions of the inhibitor (0.1 mM) were prepared in distilled–deionized water and dilutions up to 0.01 nM were done thereafter with the assay buffer. Inhibitor and enzyme solutions were preincubated together for 15 min at room temperature prior to the assay, to allow for the formation of the E–I complex. The inhibition constants were obtained by non-linear least-squares methods using PRISM 3 and the Cheng-Prusoff equation as reported earlier and represent the mean from at least three different determinations. All CA isoforms were recombinant proteins obtained in house, as reported earlier[14]^,[26–29].

`CC(=O)Nc1nnc(S(N)(=O)=O)s1` [AAZ, acetazolamide, reference compound] was tested, and the Ki was 91.7 ± 5.8 nM.
